The list shows a part of the results.
Legend:
Test in all cases: log2 fold change, soluble protein after heating vs DMSO (PISA); higher = thermal stabilisation; K562 cells, 10 uM, 30 min; active = over 0.2 and 3.5 SD of the protein, either way, in both replicates (recomputed)
erlotinib = compound: C#Cc1cccc(Nc2ncnc3cc(OCCOC)c(OCCOC)cc23)c1 [erlotinib]
Method in brief: (§1)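 K562 cells (2×10^6 cells/mL) were treated with 10 μM compound for 30 min, and aliquots were heated for 3 min over 48°C-58°C. Pooled aliquots were extracted in PBS with 0.5% NP-40 at 4°C, and the supernatant after 21,000xg for 90 min was measured by TMTpro 16plex LC-MS/MS with channel sums equalised. Reported thermal stability, relative to control samples and from duplicates, is a log2 fold change.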

The chains behind the UniProt entries cited, without tags or fusion partners. Where a name states a change or a piece, a line headed by the entry shows the natural chain unless it says otherwise.
UniProt Q13555: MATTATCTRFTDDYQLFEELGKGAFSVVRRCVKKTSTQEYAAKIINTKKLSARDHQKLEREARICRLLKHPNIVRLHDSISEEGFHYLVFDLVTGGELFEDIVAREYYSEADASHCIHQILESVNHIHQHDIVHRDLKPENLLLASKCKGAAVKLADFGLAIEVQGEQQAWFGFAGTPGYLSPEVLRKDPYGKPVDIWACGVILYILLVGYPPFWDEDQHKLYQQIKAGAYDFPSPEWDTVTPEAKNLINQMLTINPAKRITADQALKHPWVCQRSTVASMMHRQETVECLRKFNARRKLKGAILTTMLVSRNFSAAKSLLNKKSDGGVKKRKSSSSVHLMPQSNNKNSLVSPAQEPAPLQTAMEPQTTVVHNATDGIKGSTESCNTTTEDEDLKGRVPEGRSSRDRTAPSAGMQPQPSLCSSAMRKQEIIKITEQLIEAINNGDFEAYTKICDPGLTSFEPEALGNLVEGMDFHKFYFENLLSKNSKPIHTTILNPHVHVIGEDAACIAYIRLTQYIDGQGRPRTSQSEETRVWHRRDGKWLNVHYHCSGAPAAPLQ
UniProt Q8TCD1: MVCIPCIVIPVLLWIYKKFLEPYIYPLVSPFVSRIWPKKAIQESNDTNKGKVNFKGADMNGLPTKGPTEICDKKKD
UniProt Q8N6N3: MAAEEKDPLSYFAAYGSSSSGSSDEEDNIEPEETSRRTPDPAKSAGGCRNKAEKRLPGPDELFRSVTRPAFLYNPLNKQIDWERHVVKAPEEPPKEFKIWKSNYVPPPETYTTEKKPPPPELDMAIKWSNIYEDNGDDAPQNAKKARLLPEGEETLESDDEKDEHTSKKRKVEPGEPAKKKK
UniProt Q96B23: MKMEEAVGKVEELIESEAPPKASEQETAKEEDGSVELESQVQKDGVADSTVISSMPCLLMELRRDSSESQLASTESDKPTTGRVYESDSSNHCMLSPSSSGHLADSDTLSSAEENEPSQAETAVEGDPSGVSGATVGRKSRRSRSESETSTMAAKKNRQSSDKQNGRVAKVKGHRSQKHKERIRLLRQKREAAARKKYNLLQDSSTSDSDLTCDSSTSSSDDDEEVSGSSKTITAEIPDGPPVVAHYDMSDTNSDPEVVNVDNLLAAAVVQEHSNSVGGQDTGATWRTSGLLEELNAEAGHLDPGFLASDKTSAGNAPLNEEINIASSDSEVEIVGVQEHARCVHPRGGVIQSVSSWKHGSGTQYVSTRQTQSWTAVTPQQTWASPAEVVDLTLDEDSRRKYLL
UniProt Q9UFG5: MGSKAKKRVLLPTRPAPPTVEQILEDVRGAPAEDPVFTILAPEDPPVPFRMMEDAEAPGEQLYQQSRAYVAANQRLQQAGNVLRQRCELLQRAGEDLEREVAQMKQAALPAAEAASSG
UniProt P0C0L4: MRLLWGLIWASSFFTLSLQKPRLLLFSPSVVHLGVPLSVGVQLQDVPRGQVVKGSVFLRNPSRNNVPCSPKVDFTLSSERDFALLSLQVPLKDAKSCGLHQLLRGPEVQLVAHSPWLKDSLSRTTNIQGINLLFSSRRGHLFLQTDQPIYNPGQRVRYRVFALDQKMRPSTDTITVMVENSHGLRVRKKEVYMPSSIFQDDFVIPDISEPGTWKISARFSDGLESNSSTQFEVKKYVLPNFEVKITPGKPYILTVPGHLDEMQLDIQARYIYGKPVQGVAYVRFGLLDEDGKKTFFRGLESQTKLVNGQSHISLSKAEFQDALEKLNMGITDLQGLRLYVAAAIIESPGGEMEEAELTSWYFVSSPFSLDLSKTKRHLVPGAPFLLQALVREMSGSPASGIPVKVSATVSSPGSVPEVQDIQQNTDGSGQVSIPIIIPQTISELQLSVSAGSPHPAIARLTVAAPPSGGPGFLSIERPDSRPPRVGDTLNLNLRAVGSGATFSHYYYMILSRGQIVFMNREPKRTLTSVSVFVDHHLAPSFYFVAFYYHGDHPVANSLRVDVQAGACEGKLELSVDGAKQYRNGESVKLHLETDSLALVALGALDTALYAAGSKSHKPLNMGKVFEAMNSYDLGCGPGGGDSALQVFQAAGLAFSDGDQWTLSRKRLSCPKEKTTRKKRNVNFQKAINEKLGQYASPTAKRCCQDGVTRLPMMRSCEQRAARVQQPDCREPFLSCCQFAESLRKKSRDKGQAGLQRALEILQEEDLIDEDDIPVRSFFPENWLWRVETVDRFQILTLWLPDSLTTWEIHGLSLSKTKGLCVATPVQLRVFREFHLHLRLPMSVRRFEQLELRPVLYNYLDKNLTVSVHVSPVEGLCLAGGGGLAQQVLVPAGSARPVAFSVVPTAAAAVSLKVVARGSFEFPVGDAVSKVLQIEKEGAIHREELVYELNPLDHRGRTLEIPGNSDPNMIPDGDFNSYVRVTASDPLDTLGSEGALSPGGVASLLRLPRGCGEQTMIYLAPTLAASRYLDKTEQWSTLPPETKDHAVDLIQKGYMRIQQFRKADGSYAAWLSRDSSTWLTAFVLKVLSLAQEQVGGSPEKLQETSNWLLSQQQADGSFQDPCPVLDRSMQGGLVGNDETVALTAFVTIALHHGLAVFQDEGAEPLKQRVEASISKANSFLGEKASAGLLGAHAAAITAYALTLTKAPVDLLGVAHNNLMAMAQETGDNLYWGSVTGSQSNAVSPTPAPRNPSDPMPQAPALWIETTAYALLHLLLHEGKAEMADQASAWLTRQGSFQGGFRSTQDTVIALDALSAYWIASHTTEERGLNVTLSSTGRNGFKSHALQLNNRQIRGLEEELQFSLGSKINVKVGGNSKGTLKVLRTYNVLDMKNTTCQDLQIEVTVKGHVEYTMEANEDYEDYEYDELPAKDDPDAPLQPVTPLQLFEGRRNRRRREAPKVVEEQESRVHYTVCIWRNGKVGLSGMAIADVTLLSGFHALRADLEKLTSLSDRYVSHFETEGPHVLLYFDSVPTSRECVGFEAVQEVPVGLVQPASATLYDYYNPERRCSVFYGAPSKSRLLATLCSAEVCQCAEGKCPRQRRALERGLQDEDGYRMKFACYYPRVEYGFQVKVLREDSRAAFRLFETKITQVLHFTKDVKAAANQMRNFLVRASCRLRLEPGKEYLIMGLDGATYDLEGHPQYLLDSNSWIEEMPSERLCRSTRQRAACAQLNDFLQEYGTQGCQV
UniProt Q8IYL3: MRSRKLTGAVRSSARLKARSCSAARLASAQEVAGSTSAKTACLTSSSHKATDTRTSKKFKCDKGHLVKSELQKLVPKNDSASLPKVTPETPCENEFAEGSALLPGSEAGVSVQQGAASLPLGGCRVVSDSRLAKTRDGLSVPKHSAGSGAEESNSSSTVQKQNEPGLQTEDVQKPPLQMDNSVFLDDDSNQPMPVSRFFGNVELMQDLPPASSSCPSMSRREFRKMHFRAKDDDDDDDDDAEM
UniProt Q9H425: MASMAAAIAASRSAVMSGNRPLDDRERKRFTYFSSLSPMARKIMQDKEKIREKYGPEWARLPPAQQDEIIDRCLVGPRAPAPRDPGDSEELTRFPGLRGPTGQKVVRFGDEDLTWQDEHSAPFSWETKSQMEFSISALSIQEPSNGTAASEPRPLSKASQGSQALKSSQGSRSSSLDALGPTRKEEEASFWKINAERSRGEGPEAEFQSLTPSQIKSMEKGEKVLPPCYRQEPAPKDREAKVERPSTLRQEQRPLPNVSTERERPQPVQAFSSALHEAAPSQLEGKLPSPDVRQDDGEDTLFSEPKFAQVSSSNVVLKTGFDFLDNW
UniProt P01024, whole entry, looked up: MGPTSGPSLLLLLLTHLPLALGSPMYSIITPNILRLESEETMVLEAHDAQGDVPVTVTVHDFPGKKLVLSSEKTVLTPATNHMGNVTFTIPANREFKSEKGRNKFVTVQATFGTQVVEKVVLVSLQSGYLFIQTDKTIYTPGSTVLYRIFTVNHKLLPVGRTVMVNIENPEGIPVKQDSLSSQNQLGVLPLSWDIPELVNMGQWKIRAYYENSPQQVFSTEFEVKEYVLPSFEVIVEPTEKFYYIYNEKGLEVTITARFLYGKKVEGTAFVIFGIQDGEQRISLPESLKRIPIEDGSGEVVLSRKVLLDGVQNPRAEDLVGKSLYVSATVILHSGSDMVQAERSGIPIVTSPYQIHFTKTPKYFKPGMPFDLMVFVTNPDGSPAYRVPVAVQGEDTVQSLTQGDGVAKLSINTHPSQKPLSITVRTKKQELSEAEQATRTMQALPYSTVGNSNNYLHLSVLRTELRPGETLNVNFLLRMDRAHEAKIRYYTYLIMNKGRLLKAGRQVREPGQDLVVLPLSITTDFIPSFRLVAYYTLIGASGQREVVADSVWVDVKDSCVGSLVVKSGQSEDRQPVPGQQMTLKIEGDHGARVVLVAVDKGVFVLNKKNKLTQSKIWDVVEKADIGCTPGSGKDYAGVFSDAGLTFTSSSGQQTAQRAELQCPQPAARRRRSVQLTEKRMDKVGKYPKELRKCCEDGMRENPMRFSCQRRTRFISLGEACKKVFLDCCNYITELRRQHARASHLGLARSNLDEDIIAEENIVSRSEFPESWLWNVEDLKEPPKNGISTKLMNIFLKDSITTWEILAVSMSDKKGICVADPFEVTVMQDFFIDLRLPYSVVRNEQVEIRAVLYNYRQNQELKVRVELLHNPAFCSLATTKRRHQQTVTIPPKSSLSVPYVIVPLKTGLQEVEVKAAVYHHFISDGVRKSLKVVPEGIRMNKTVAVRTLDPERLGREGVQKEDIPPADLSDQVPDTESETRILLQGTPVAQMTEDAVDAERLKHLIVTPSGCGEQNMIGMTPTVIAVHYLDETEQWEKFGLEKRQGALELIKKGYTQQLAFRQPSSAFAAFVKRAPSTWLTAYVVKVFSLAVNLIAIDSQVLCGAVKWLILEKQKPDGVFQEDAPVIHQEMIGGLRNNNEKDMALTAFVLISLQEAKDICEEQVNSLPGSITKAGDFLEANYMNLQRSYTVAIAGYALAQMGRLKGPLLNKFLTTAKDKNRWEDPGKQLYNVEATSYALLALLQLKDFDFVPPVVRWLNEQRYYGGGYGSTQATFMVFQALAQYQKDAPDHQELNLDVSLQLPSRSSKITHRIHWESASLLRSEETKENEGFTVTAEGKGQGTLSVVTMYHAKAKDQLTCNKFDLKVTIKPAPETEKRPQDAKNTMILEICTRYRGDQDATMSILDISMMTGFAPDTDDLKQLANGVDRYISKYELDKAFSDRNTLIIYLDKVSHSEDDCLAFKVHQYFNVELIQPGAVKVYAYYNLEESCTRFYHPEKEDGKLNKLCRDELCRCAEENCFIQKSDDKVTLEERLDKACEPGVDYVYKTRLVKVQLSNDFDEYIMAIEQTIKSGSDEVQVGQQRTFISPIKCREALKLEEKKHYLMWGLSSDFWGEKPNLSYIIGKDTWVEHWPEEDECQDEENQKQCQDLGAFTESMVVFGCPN
UniProt Q8N1Q1: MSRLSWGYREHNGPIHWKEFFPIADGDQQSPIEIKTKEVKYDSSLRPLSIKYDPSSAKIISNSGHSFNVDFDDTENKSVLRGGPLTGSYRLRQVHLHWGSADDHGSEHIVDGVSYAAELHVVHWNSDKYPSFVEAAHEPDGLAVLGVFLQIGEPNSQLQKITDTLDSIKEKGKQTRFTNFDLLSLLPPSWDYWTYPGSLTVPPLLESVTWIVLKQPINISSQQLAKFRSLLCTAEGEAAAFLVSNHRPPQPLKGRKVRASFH
UniProt P47756, whole entry, looked up: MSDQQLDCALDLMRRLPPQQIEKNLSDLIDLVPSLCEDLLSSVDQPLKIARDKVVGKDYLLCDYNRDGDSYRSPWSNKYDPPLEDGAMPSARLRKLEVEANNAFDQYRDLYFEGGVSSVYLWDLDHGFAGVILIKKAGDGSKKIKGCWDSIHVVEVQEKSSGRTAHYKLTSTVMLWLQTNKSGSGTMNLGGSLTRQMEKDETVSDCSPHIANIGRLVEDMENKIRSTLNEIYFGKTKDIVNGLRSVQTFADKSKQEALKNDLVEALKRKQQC
UniProt P35613: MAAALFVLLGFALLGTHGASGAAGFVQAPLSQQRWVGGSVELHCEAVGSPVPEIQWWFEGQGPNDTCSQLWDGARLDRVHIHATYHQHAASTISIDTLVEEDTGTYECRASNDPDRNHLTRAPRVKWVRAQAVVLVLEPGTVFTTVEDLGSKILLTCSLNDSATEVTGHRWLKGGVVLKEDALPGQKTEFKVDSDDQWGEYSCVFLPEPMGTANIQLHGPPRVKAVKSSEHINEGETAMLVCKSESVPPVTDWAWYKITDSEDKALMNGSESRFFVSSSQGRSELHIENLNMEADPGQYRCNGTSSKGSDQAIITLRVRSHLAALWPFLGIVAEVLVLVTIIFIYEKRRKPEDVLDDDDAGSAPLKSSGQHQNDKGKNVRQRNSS
UniProt Q9NS00: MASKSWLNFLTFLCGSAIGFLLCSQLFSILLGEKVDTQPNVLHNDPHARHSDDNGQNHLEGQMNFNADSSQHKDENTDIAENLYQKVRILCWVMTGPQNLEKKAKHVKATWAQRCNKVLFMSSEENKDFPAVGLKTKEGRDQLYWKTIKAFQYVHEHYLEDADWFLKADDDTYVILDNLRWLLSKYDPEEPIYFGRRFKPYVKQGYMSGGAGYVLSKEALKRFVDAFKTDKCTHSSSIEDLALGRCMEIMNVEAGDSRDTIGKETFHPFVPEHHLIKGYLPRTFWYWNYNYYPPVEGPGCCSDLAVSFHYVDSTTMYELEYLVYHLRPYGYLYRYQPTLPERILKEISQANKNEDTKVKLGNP

[1] = compound: C/C(=N\NC(=O)C1=CC(=CC=C1)S(=O)(=O)N2CCOCC2)/C3=C(C=CC(=C3)Cl)O
Method in brief: as §1

[2] = compound: C1=CC(=C(C=C1Cl)C2=NC3=NC=CN=C3C(=N2)NC4=CC=NC=C4)F
Method in brief: as §1

[3] = compound: C1=CC(=CC=C1C2=NC3=C(N2)C=C(C=C3)C(=O)N)OC4=CC=C(C=C4)Cl
Method in brief: as §1

[4] = compound: C1=CC2=C(C=CC(=C2)/C=C\3/C(=O)NC(=NCC4=CC=CS4)S3)N=C1
Method in brief: as §1

[5] = compound: C1=CC2=NC=CN=C2C=C1/C=C/3\C(=O)NC(=O)S3
Method in brief: as §1

[6] = compound: C1=CC=C(C=C1)C2=NC(=C(N2)C3=CC=NC=C3)C4=CC(=C(C=C4)Cl)O
Method in brief: as §1

[7] = compound: C1=CC=C2C(=C1)C3=NNC4=CC=CC(=C43)C2=O
Method in brief: as §1

[8] = compound: C1CCN(C1)C(=O)NC2=CC=CC(=C2)NC3=NC=C(C(=N3)NCCC4=CN=CN4)Br
Method in brief: as §1

[9] = compound: C1CN(CCC1(CC2=CC=C(C=C2)Cl)N)C3=NC=NC4=C3C=CN4
Method in brief: as §1

Measured: log2 fold change

CAMK2G isoform 6 (UniProt Q13555)
inactive: erlotinib -0.003 | [1] -0.096 | [2] -0.047 | [3] -0.098 | [4] 0.054 | [5] 0.009 | [6] 0.055 | [7] 0.08 | [8] -0.02 | [9] 0.015

BTAF1 (UniProt O14981)
inactive: erlotinib 0.04 | [1] 0.078 | [2] 0.072 | [3] 0.005 | [4] 0.048 | [5] -0.006 | [6] -0.038 | [7] -0.032 | [8] 0.011 | [9] 0.05

C18orf32 (UniProt Q8TCD1)
inactive: erlotinib -0.019 | [1] -0.035 | [2] 0.194 | [3] -0.014 | [4] 0.09 | [5] 0.099 | [6] 0.001 | [7] 0.111 | [8] -0.062 | [9] -0.044

C1orf52 (UniProt Q8N6N3)
inactive: erlotinib 0.025 | [1] -0.046 | [2] -0.017 | [3] 0.013 | [4] -0.026 | [5] 0.05 | [6] 0.018 | [7] -0.005 | [8] -0.009 | [9] 0.022

C2orf69 (UniProt Q8N8R5)
inactive: erlotinib 0.063 | [1] 0.167 | [2] 0.048 | [3] 0.069 | [4] -0.09 | [5] 0.035 | [6] -0.037 | [7] -0.084 | [8] -0.026 | [9] -0.001

C18orf25 (UniProt Q96B23)
inactive: erlotinib -0.008 | [1] -0.013 | [2] 0 | [3] 0.064 | [4] -0.035 | [5] 0.057 | [6] 0.017 | [7] -0.009 | [8] -0.019 | [9] 0.058

CAAP1 (UniProt Q9H8G2)
inactive: erlotinib -0.07 | [1] 0.068 | [2] -0.143 | [3] 0.035 | [4] -0.035 | [5] -0.094 | [6] -0.345 | [7] -0.161 | [8] 0.111 | [9] 0.016

C17orf80 (UniProt Q9BSJ5)
inactive: erlotinib -0.041 | [1] -0.083 | [2] 0.019 | [3] 0.104 | [4] 0.024 | [5] -0.069 | [6] -0.045 | [7] -0.084 | [8] 0.06 | [9] 0.002

C19orf25 (UniProt Q9UFG5)
inactive: erlotinib -0.031 | [1] 0.008 | [2] 0.27 | [3] 0.015 | [4] 0.094 | [5] 0.111 | [6] 0.037 | [7] 0.042 | [8] 0 | [9] -0.03

C4A (UniProt P0C0L4)
inactive: erlotinib -0.117 | [1] -0.05 | [2] 0.024 | [3] 0.078 | [4] 0.12 | [5] -0.032 | [6] 0.002 | [7] -0.132 | [8] 0.072 | [9] 0.104

CAMLG (UniProt P49069)
inactive: erlotinib 0.012 | [1] 0.031 | [2] -0.016 | [3] 0.032 | [4] 0.056 | [5] 0.017 | [6] -0.029 | [7] -0.086 | [8] -0.023 | [9] 0.082

C12orf29 (UniProt Q8N999)
inactive: erlotinib 0.026 | [1] -0.14 | [2] 0.046 | [3] -0.002 | [4] 0.057 | [5] 0.043 | [6] -0.05 | [7] -0.075 | [8] 0.128 | [9] 0.05

BTF3 (UniProt P20290)
inactive: erlotinib 0.006 | [1] 0.039 | [2] 0.006 | [3] -0.015 | [4] -0.095 | [5] -0.006 | [6] 0.014 | [7] 0.013 | [8] -0.013 | [9] 0.018

C1orf174 (UniProt Q8IYL3)
inactive: erlotinib 0.049 | [1] 0.173 | [2] -0.06 | [3] 0 | [4] 0.067 | [5] -0.031 | [6] 0.13 | [7] 0.29 | [8] 0.046 | [9] 0.16

CA8 (UniProt P35219)
inactive: erlotinib -0.045 | [1] 0.051 | [2] 0.092 | [3] -0.017 | [4] 0.054 | [5] 0.019 | [6] 0.118 | [7] -0.02 | [8] -0.054 | [9] 0.011

C2CD5 isoform 4 (UniProt Q86YS7)
inactive: erlotinib 0.146 | [1] -0.161 | [2] -0.006 | [3] -0.075 | [4] 0.001 | [5] -0.077 | [6] 0.027 | [7] -0.014 | [8] -0.019 | [9] -0.06

BUD31 (UniProt P41223)
inactive: erlotinib -0.027 | [1] 0.084 | [2] 0.007 | [3] 0.026 | [4] -0.097 | [5] -0.003 | [6] 0.038 | [7] 0.007 | [8] -0.05 | [9] 0.077

C1orf198 (UniProt Q9H425)
inactive: erlotinib 0.101 | [1] -0.041 | [2] 0 | [3] 0.159 | [4] -0.108 | [5] 0.031 | [6] -0.058 | [7] -0.004 | [8] -0.001 | [9] 0.03

C8orf76 (UniProt Q96K31)
inactive: erlotinib -0.044 | [1] 0.049 | [2] 0.027 | [3] 0.043 | [4] -0.031 | [5] 0.032 | [6] -0.068 | [7] 0.075 | [8] -0.013 | [9] 0.04

C3 (UniProt P01024)
inactive: erlotinib -0.125 | [1] -0.093 | [2] 0.015 | [3] 0.087 | [4] 0.117 | [5] -0.045 | [6] -0.073 | [7] -0.116 | [8] 0.054 | [9] 0.164

C16orf58 (UniProt Q96GQ5)
inactive: erlotinib 0.033 | [1] 0.01 | [2] 0.051 | [3] 0.023 | [4] 0.061 | [5] 0.042 | [6] -0.001 | [7] -0.021 | [8] 0.006 | [9] 0.036

C1orf109 (UniProt Q9NX04)
inactive: erlotinib -0.046 | [1] -0.044 | [2] -0.133 | [3] -0.042 | [4] 0.01 | [5] 0.093 | [6] -0.061 | [7] 0.01 | [8] 0.061 | [9] 0.031

CA13 (UniProt Q8N1Q1)
inactive: erlotinib -0.004 | [1] 0.041 | [2] 0.048 | [3] -0.026 | [4] -0.033 | [5] 0.134 | [6] 0.07 | [7] 0.017 | [8] -0.14 | [9] -0.061

CAPZB (UniProt P47756)
inactive: erlotinib 0.015 | [1] -0.006 | [2] 0.017 | [3] -0.014 | [4] 0.032 | [5] -0.005 | [6] -0.043 | [7] -0.016 | [8] 0.01 | [9] 0.01

BSG (UniProt P35613)
inactive: erlotinib -0.002 | [1] 0.008 | [2] -0.004 | [3] -0.016 | [4] -0.001 | [5] -0.013 | [6] -0.013 | [7] -0.069 | [8] 0 | [9] 0.058

CAND2 (UniProt O75155)
inactive: erlotinib 0.025 | [1] -0.079 | [2] 0.043 | [3] -0.036 | [4] -0.101 | [5] 0.033 | [6] 0.021 | [7] -0.062 | [8] 0.052 | [9] 0.063

Quoted from the results shown (9 entries):
C1orf198 (UniProt Q9H425)
inactive: erlotinib 0.101 | [1] -0.041 | [2] 0 | [3] 0.159 | [4] -0.108 | [5] 0.031 | [6] -0.058 | [7] -0.004 | [8] -0.001 | [9] 0.03

C8orf76 (UniProt Q96K31)
inactive: erlotinib -0.044 | [1] 0.049 | [2] 0.027 | [3] 0.043 | [4] -0.031 | [5] 0.032 | [6] -0.068 | [7] 0.075 | [8] -0.013 | [9] 0.04

C3 (UniProt P01024)
inactive: erlotinib -0.125 | [1] -0.093 | [2] 0.015 | [3] 0.087 | [4] 0.117 | [5] -0.045 | [6] -0.073 | [7] -0.116 | [8] 0.054 | [9] 0.164

C16orf58 (UniProt Q96GQ5)
inactive: erlotinib 0.033 | [1] 0.01 | [2] 0.051 | [3] 0.023 | [4] 0.061 | [5] 0.042 | [6] -0.001 | [7] -0.021 | [8] 0.006 | [9] 0.036

C1orf109 (UniProt Q9NX04)
inactive: erlotinib -0.046 | [1] -0.044 | [2] -0.133 | [3] -0.042 | [4] 0.01 | [5] 0.093 | [6] -0.061 | [7] 0.01 | [8] 0.061 | [9] 0.031

CA13 (UniProt Q8N1Q1)
inactive: erlotinib -0.004 | [1] 0.041 | [2] 0.048 | [3] -0.026 | [4] -0.033 | [5] 0.134 | [6] 0.07 | [7] 0.017 | [8] -0.14 | [9] -0.061

CAPZB (UniProt P47756)
inactive: erlotinib 0.015 | [1] -0.006 | [2] 0.017 | [3] -0.014 | [4] 0.032 | [5] -0.005 | [6] -0.043 | [7] -0.016 | [8] 0.01 | [9] 0.01

BSG (UniProt P35613)
inactive: erlotinib -0.002 | [1] 0.008 | [2] -0.004 | [3] -0.016 | [4] -0.001 | [5] -0.013 | [6] -0.013 | [7] -0.069 | [8] 0 | [9] 0.058

CAND2 (UniProt O75155)
inactive: erlotinib 0.025 | [1] -0.079 | [2] 0.043 | [3] -0.036 | [4] -0.101 | [5] 0.033 | [6] 0.021 | [7] -0.062 | [8] 0.052 | [9] 0.063

The list goes on:

C1GALT1 (UniProt Q9NS00)
inactive: erlotinib 0.006 | [1] -0.041 | [2] -0.013 | [3] -0.005 | [4] 0.039 | [5] 0.005 | [6] -0.052 | [7] -0.119 | [8] -0.019 | [9] 0.009

C9orf72 (UniProt Q96LT7)
inactive: erlotinib 0.095 | [1] 0.021 | [2] 0.02 | [3] -0.012 | [4] -0.068 | [5] -0.068 | [6] -0.086 | [7] -0.057 | [8] -0.205 | [9] 0.211

BTF3L4 (UniProt Q96K17)
inactive: erlotinib 0.004 | [1] 0.056 | [2] -0.004 | [3] -0.002 | [4] -0.027 | [5] 0.023 | [6] -0.012 | [7] 0.007 | [8] -0.017 | [9] 0.062

C2CD2 (UniProt Q9Y426)
inactive: erlotinib 0.094 | [1] -0.002 | [2] -0.088 | [3] 0.024 | [4] 0.038 | [5] 0.078 | [6] 0.064 | [7] -0.129 | [8] -0.039 | [9] 0.13
